# Source: PubChem BioAssay
# Sequences of proteins named here, by UniProt entry; tags and fusion partners are left off.
# UniProt P08183, whole entry, looked up: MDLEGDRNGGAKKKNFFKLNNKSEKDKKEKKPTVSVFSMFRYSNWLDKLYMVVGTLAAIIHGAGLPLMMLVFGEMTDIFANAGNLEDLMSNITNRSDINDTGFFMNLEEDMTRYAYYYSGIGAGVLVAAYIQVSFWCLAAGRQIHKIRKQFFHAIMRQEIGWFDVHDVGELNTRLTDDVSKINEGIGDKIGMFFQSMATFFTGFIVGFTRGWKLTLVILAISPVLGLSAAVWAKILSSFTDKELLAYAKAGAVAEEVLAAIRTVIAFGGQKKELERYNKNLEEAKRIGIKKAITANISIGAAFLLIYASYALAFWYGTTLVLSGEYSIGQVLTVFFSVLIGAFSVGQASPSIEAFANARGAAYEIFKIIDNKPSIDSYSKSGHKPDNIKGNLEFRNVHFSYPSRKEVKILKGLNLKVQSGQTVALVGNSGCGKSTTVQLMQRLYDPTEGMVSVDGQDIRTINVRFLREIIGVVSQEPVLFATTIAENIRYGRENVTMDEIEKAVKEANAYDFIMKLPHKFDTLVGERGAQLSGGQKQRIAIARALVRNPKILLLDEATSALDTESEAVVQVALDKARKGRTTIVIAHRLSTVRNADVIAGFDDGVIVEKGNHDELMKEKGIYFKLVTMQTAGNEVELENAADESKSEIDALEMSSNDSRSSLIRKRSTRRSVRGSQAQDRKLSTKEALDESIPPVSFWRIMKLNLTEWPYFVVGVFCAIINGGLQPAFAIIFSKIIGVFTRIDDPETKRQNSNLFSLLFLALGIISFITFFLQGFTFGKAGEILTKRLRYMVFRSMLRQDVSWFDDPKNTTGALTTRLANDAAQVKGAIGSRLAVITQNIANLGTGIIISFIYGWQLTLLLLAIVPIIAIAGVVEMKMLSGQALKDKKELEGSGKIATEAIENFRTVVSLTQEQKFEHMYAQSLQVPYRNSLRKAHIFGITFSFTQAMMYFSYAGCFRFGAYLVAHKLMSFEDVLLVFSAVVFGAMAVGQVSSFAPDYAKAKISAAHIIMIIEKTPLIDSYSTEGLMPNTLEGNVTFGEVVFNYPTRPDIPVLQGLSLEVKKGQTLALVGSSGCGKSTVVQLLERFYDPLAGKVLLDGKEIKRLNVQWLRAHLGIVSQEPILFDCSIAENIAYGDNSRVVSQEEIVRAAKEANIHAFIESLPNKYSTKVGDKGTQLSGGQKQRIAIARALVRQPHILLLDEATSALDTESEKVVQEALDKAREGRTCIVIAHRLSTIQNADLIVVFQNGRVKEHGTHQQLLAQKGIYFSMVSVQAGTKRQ
# The shares of active, inactive and inconclusive entries below differ from those in the screen. For some assays here: Where the call is inconclusive, the potency comes from a doubtful curve fit. The source made the active and inactive calls. Unless noted, cut-off not given; nearly all actives show AC50 up to about 30 µM.
# Assays:
# [1] = growth inhibition of DIPG glioma cells, dose response, cell-based, JHH-DIPG-1, MIPE4.0, CellTiter-Glo, qHTS (AID 1347062; cut-off not given, nearly all actives have AC50 up to about 27 µM;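 on AC50: cells exposed to compound for two days before readout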); details: JHH-DIPG-1 viability, CellTiter-Glo ATP luminescence
# [2] = growth inhibition of DIPG glioma cells, dose response, cell-based, SU-DIPG-IV, MIPE4.0, CellTiter-Glo, qHTS (AID 1347063); details: SU-DIPG-IV viability, CellTiter-Glo ATP luminescence;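 further: compound exposure lasted 48 hours before the viability readout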
# [3] = SU-DIPG-VI glioma cell viability, MIPE4.0 library, CellTiter-Glo luminescence, qHTS (AID 1347066); details: CellTiter-Glo ATP luminescence;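 further: cells exposed to compound for 48 hours before readout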
# [4] = SU-DIPG-XXV glioma cell viability, MIPE5.0 library, qHTS (AID 1347068; cut-off not given, nearly all actives have IC50 up to about 30 µM;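 further: cells exposed to compound for 48 hours before viability readout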)
# [5] = JHH-DIPG-1 glioma cell viability, MIPE5.0 library, CellTiter-Glo luminescence, qHTS (AID 1347067; cut-off not given, nearly all actives have AC50 up to about 26 µM;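 further: cells exposed to compound for 48 hours before readout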); details: JHH-DIPG-1 glioma viability, CellTiter-Glo ATP luminescence
# [6] = target: ATP-dependent translocase ABCB1 (Homo sapiens) (UniProt P08183); assay: MDR1 (ABCB1) efflux transporter inhibition, cell-based (AID 377; in the data active means fluorescence slope change above about 50%; inconclusive means mostly about 31% to 49%); details: MDR1-expressing cells, fluorescent substrate accumulation slope; hits give high values; concentration not given here
# [7] = mitochondrial permeability transition inhibitors (AID 1580; call rule not given here); details: isolated mitochondria, permeability transition inhibition; active call at 10 uM (0/1): at 10 µM, hits give high values
# [8] = inhibitors of polyQ aggregate elongation, biochemical, solid-phase synthetic aggregates, QA3 (AID 1585; call rule not given here); details: biotin-polyQ incorporation, at 100 µM, hits give high values
# [9] = polyglutamine aggregation reduction, turbidity readout, qthio, single concentration 25 µM screen (AID 1588; call rule not given here); details: at 25 µM, hits give low values
# [10] = enhancers of SMN2 over SMN1 splicing, cell-based, SMN2/SMN1 luciferase reporters (AID 1598; call rule not given here); details: SMN2 vs SMN1 luciferase splicing reporter cells; at 10 µM; hits give high values
# [11] = growth inhibition of DIPG glioma cells, dose response, cell-based, SU-DIPG-XIII, MIPE5.0, CellTiter-Glo, qHTS (AID 1347064; cut-off not given, nearly all actives have AC50 up to about 23 µM;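 on AC50: cells exposed to compound for 48 hours before the viability read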); details: SU-DIPG-XIII viability, CellTiter-Glo ATP luminescence
# [12] = viability loss in pontine glioma line – cell-based, SU-DIPG-XXV, MIPE5.0, CellTiter-Glo, qHTS, dose response (AID 1347065; cut-off not given, nearly all actives have AC50 up to about 26 µM;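 further: cells exposed to compound for 48 hours before ATP readout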); details: CellTiter-Glo ATP luminescence
smiles,measurement,setting,value
O[C@@H](CNC[C@H](O)[C@H]1CCc2cc(F)ccc2O1)[C@@H]1CCc2cc(F)ccc2O1,AC50,[1],inconclusive: 33.2 µM [cytotoxic]
same,AC50,[2],active: 20.9 µM
same,AC50,[3],inconclusive: 26.4 µM [cytotoxic]
CCOC(=O)[C@@H](N)Cc1ccc(-c2cc(O[C@H](c3ccc(Cl)cc3-n3ccc(C)n3)C(F)(F)F)nc(N)n2)cc1,AC50,[1],inconclusive: 33.2 µM [cytotoxic]
same,AC50,[2],active: 26.4 µM
same,AC50,[3],active: 16.6 µM
same,IC50,[4],inconclusive: 37.2 µM [cytotoxic]
O=C(O)/C=C/c1ccc(Cn2ccnc2)cc1,outcome,[1],inactive
same,AC50,[5],inconclusive: 0.0661 µM [cytotoxic]
Clc1ccc2c(c1)C(N1CCNCC1)=Nc1ccccc1O2,fluorescence slope change,[6],active: 156%
same,active call at 10 uM (0/1),[7],inconclusive: 1
same,inhibition,[8],inconclusive: 23.3%
same,aggregation (% of control),[9],inconclusive: 100%
same,SMN2/SMN1 luciferase ratio,[10],inconclusive: 0.91
same,outcome,[1],inactive
same,outcome,[2],inactive
C[C@](Cc1c[nH]c2ccccc12)(NC(=O)OC1C2CC3CC(C2)CC1C3)C(=O)NC[C@H](NC(=O)CCC(=O)O)c1ccccc1 (some centres not stated),AC50,[1],inconclusive: 26.4 µM [cytotoxic]
same,outcome,[11],inactive
OCCn1cc(-c2cnc3nnn(Cc4ccc5ncccc5c4)c3n2)cn1,outcome,[1],inactive
same,AC50,[2],inconclusive: 3.32 µM [cytotoxic]
same,AC50,[3],inconclusive: 37.2 µM [cytotoxic]
same,outcome,[5],inactive
COC1=C(OC)C(=O)C(C/C=C(\C)CC/C=C(\C)CC/C=C(\C)CC/C=C(\C)CC/C=C(\C)CC/C=C(\C)CC/C=C(\C)CC/C=C(\C)CC/C=C(\C)CCC=C(C)C)=C(C)C1=O,AC50,[2],inconclusive: 2.09 µM
C=C1C(=O)OC(CCCCCCCC)C1C(=O)O (configuration not stated),outcome,[2],inactive
same,AC50,[11],inconclusive: 4.68 µM [cytotoxic]
same,outcome,[12],inactive
Cc1onc(-c2ccccc2Cl)c1C(=O)N[C@@H]1C(=O)N2[C@@H]1SC(C)(C)[C@@H]2C(=O)O,fluorescence slope change,[6],active: 68%
same,inhibition,[8],inconclusive: 9.33%
same,aggregation (% of control),[9],inconclusive: 119%
same,SMN2/SMN1 luciferase ratio,[10],inconclusive: 1.08
same,AC50,[1],inconclusive: 0.132 µM
same,outcome,[2],inactive
COc1cccc(N(C)C(=S)Oc2ccc3c(c2)CCCC3)n1,outcome,[1],inactive
same,outcome,[2],inactive
same,AC50,[3],inconclusive: 37.2 µM [cytotoxic]
O=C(O)c1cccnc1Nc1cccc(C(F)(F)F)c1,fluorescence slope change,[6],inconclusive: 32.3%
same,inhibition,[8],inconclusive: 26.9%
same,aggregation (% of control),[9],inconclusive: 110%
same,SMN2/SMN1 luciferase ratio,[10],inconclusive: 1.06
same,outcome,[1],inactive
N[C@@]1(C(=O)O)CS(=O)(=O)[C@H]2[C@H](C(=O)O)[C@H]21,outcome,[1],inactive
same,outcome,[11],inactive
same,AC50,[12],inconclusive: 0.00148 µM [cytotoxic]
O=C(Nc1ccc(Oc2ccnc3[nH]ccc23)c(F)c1)c1cccn(-c2ccc(F)cc2)c1=O,AC50,[1],inconclusive: 37.2 µM [cytotoxic]
same,AC50,[2],inconclusive: 13.2 µM [cytotoxic]
same,outcome,[5],inactive
O=C(CCCN1CCC(O)(c2ccc(Cl)cc2)CC1)c1ccc(F)cc1,inhibition,[8],inconclusive: 11.3%
same,aggregation (% of control),[9],inconclusive: 116%
same,SMN2/SMN1 luciferase ratio,[10],inconclusive: 0.98
same,AC50,[1],inconclusive: 0.00209 µM [cytotoxic]
same,outcome,[3],inactive
Cc1cccc(Nc2ccncc2S(=O)(=O)NC(=O)NC(C)C)c1,outcome,[2],inactive
Cc1noc(NS(=O)(=O)c2ccc(N)cc2)c1C,fluorescence slope change,[6],inconclusive: 32%
same,inhibition,[8],inconclusive: 9.25%
same,aggregation (% of control),[9],inconclusive: 111%
same,SMN2/SMN1 luciferase ratio,[10],inconclusive: 1.04
same,outcome,[1],inactive
same,outcome,[2],inactive
same,outcome,[3],inactive
C=CCc1ccc(O)c(-c2ccc(O)c(CC=C)c2)c1,AC50,[1],inconclusive: 29.6 µM [cytotoxic]
same,AC50,[2],active: 23.5 µM
same,AC50,[3],inconclusive: 33.2 µM [cytotoxic]
CN1CCN2c3ccccc3Cc3ccccc3C2C1 (configuration not stated),inhibition,[8],inconclusive: 3.71%
same,aggregation (% of control),[9],inconclusive: 112%
same,SMN2/SMN1 luciferase ratio,[10],inconclusive: 0.94
same,outcome,[1],inactive
same,outcome,[2],inactive
CCC[C@@H]1C[C@@H](C(=O)N[C@@H]([C@H]2O[C@H](SC)[C@H](O)[C@@H](O)[C@H]2O)[C@@H](C)O)N(C)C1,outcome,[1],inactive
same,outcome,[2],inactive
same,AC50,[3],inconclusive: 0.00526 µM
C[Se]CCC(N)C(=O)O (configuration not stated),outcome,[1],inactive
same,outcome,[11],inactive
same,AC50,[12],inconclusive: 0.00215 µM [cytotoxic]
same,outcome,[5],inactive
CC[C@]1(O)C[C@@H]2CN(CCc3c([nH]c4ccccc34)[C@@](C(=O)OC)(c3cc4c(cc3OC)N(C=O)[C@@H]3C45CCN4CC=C[C@](CC)([C@H]45)[C@@H](OC(C)=O)[C@]3(O)C(=O)OC)C2)C1 (some centres not stated),AC50,[1],inconclusive: 16.6 µM [cytotoxic]
same,outcome,[2],inactive
same,AC50,[3],inconclusive: 20.9 µM [cytotoxic]

# 5 entries picked at random from those above:
smiles,measurement,setting,value
O[C@@H](CNC[C@H](O)[C@H]1CCc2cc(F)ccc2O1)[C@@H]1CCc2cc(F)ccc2O1,AC50,[2],active: 20.9 µM
Clc1ccc2c(c1)C(N1CCNCC1)=Nc1ccccc1O2,outcome,[2],inactive
C[Se]CCC(N)C(=O)O (configuration not stated),outcome,[11],inactive
O=C(O)c1cccnc1Nc1cccc(C(F)(F)F)c1,inhibition,[8],inconclusive: 26.9%
Cc1noc(NS(=O)(=O)c2ccc(N)cc2)c1C,aggregation (% of control),[9],inconclusive: 111%
